Patent US9757408B2 (Hayashibara Co., Ltd., priority 2010, dated 2017)

Test system: KK-Ay mice
Test: KK-Ay mice kidney inflammation: body weight, kidney ratio, blood glucose, HbA1c, renal glomerulus consolidation (Experiment 14)
Format: in vivo
Settings: 10 weeks; for Weight ratio of kidney: (Weight of kidney)/(Body weight)
Description: Fifty KK-Ay mice, 5-week-old, male, commercialized by Japan Crea Co., Tokyo, Japan, were preliminary bred for one week on CE-2 feed commercialized by Japan Crea Co., Tokyo, Japan, measured for body weight and blood glucose level in blood samples collected from their tail veins, and randomly grouped into five groups, ten heads each, after balancing each measured value. One of the five groups was made into a control group and the mice of the group were allowed to take water freely and bred for 10 weeks (Experiment group 1). […] Throughout the periods of preliminary breeding and testing, the mice were bred while freely allowing them to take CE-2 feed at 22±2° C. under a light-dark cycle of 12 hours (lighting: from 7:00 to 19:00). At the termination of the test, the mice were evaluated based on their body weight, weight ratio of kidney, blood glucose level, hemoglobin A1c (HbA1c), and pathological findings of renal disorder by autopsy, and the percentage of mice with at least 50% consolidation (++) of renal glomerulus against the total glomus is shown in Table 15. The weight ratio of kidney was determined by dividing the weight of kidney by the body weight. The blood glucose level, HbA1c, and denatured score of renal glomerulus were determined by the following method.
At the termination of the test, the mice were fasted for 16 hours prior to autopsy and collected blood from their postcava for measurement of fasting glucose level. The blood glucose level was determined by “GLUCOSE CII-TEST WAKO”, a product name of a commercialized reagent for blood glucose level commercialized by Wako Pure Chemical Industries Ltd., Tokyo, Japan.
At the termination of the test, the mice were fasted for 16 hours before autopsy and collected blood from their postcava for measurement of interdigestive HbA1c level. The measurement was asked FALCO biosystems Ltd., Kyoto, Japan, a privately-owned clinical inspection institute.
At the autopsy, each mouse was collected his kidney which was then fixed with neutral buffered formalin, prepared into a pathologic tissue section in usual manner, and stained with hematoxylin-eosin staining (H-E staining) and PAS staining. For the stained pathologic tissue section of each mouse, they were compared with that of the control and the pathological findings by microscopic observation were judged based on the following criteria and scored for an index of the denaturation of renal disorder.
The degree of renal disorder was judged based on the degree of consolidation of renal glomerulus: The degree was judged based on the four grades; (++), meaning that at least 50% consolidation of renal glomerulus is observed against the total glomus; (+), meaning that at least 25% but below 50% consolidation of renal glomerulus is observed against the total glomus; (±), meaning that less than 25% consolidation of renal glomerulus is observed against the total glomus; and (−), meaning that no consolidation of renal glomerulus is observed against the total glomus. The pathological findings of kidney was judged based on an evaluation criterion for pathologic tissue (see, for example, the lines 12 to 21 at page 862 of “American Journal of Pathology”, Vol. 160, No. 3, pp. 861-867, 2002, by Andrea Hartner et al.).

[1] = 30 mg/kg body weight/day in drinking water

| Compound | Body weight [1] [g] | Weight ratio of kidney [1] | Body weight (100 mg/kg body weight/day in drinking water) [g] | Weight ratio of kidney (100 mg/kg body weight/day) | Body weight (94 mg/kg body weight/day) [g] | Weight ratio of kidney (94 mg/kg body weight/day) |
| --- | --- | --- | --- | --- | --- | --- |
| Nc1c2ncn([C@@H]3O[C@H](CO)[C@@H](O)[C@H]3O)c2nc[n+]1[O-] [ANO, adenosine N1-oxide] | 43.8 | 0.013 | 42.8 | 0.013 | – | – |
| Nc1ncnc2c1ncn2[C@@H]1O[C@H](CO)[C@@H](O)[C@H]1O [AN, adenosine] | – | – | – | – | 43.5 | – |
| OC[C@H]1O[C@@H](n2cnc3c(O)ncnc32)[C@H](O)[C@@H]1O [IN, inosine] | – | – | – | – | 43.2 | 0.013 |
